Record: PubChem BioAssay AID1259254 (NCATS, 2017)
Aim: 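Genome-wide screen for genes that prevent DNA re-replication in cancer cells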 (primary screen). System: human HCT116 colorectal cancer cells. Reagent: single siRNA against human genes. Timing: 3 days. Detection: 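Nuclei stained with Hoechst and imaged; cell-cycle phase assigned by DNA content; G2 share scaled per plate, non-targeting siRNA 0%, GMNN siRNA 100%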. Scale: G2 robust z-score: higher = more G2 cells, more excess DNA replication. Rule for the call: 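Active siRNAs have a G2 robust z of 5 or more median absolute deviations over the median, which in these data means about 38% or higher of GMNN control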.
This is a random part of about 59,000 reagents. Over the whole deposit, about 1,550 (2.6%) got an active call. 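G2 share is only a proxy for re-replication; each gene was hit by three separate siRNAs, and active genes were retested.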 The numbers tell different reagents against one gene apart. Not all columns of the deposit are shown. Not stated in the record: the amount of reagent.

G2 robust z-score, by gene and reagent
FAM13A (family with sequence similarity 13 member A): #1 -1.44 inactive; #2 1.08 inactive; #3 0.412 inactive
ACTN4 (actinin alpha 4): #1 0.0545 inactive; #2 0.211 inactive; #3 -1.3 inactive
SPINK5 (serine peptidase inhibitor Kazal type 5): #1 -0.71 inactive; #2 -0.899 inactive; #3 -0.482 inactive
PTPRR (protein tyrosine phosphatase receptor type R): #1 -0.473 inactive; #2 -0.286 inactive; #3 -0.49 inactive
EBNA1BP2 (EBNA1 binding protein 2): #1 2.84 inactive; #2 0.87 inactive; #3 1.78 inactive
PTGES2 (prostaglandin E synthase 2): #1 1.95 inactive; #2 -0.649 inactive; #3 1.25 inactive
KLHL38 (kelch like family member 38): #1 -1.05 inactive; #2 1.48 inactive; #3 0.855 inactive
UBE2C (ubiquitin conjugating enzyme E2 C): #1 1.99 inactive; #2 -0.539 inactive; #3 0.31 inactive
PAX6 (paired box 6): #1 -1.17 inactive; #2 0.208 inactive; #3 -0.492 inactive
PYCR1 (pyrroline-5-carboxylate reductase 1): #1 1.29 inactive; #2 -0.0881 inactive; #3 -0.512 inactive
ARMH4 (armadillo like helical domain containing 4): #1 -0.923 inactive; #2 0.735 inactive; #3 -0.845 inactive
RPL17 (ribosomal protein L17): #1 11.3 active; #2 3.17 inactive; #3 1.81 inactive
NME9 (NME/NM23 family member 9): #1 4.37 inactive; #2 -0.522 inactive; #3 2.58 inactive
ASPHD1 (aspartate beta-hydroxylase domain containing 1): #1 2.23 inactive; #2 -0.148 inactive; #3 -0.603 inactive
TET1 (tet methylcytosine dioxygenase 1): #1 -0.14 inactive; #2 -0.0445 inactive; #3 -0.867 inactive
NKAPD1 (NKAP domain containing 1): #1 0.0767 inactive; #2 0.333 inactive; #3 1.47 inactive
PAQR4 (progestin and adipoQ receptor family member 4): #1 0.00705 inactive; #2 2.24 inactive; #3 -0.463 inactive
SLC27A6: #1 1.28 inactive; #2 -0.883 inactive; #3 1.57 inactive
SMYD3 (SET and MYND domain containing 3): #1 0.0647 inactive; #2 -0.12 inactive; #3 -0.768 inactive
LENEP (lens epithelial protein): #1 -0.925 inactive; #2 -1.06 inactive; #3 2.16 inactive
SMC1A (structural maintenance of chromosomes 1A): #1 -1.43 inactive; #2 4.3 inactive; #3 -0.338 inactive
LEKR1 (leucine, glutamate and lysine rich 1): #1 -0.357 inactive; #2 0.808 inactive; #3 -0.87 inactive
TREML4 (triggering receptor expressed on myeloid cells like 4): #1 0.3 inactive; #2 0.128 inactive; #3 -0.393 inactive

11 entries from above, sorted by “G2 robust z-score”, high to low.
Gene	siRNA no.	G2 robust z-score	activity call
NME9 (NME/NM23 family member 9)	1	4.37	inactive
NME9 (NME/NM23 family member 9)	3	2.58	inactive
ASPHD1 (aspartate beta-hydroxylase domain containing 1)	1	2.23	inactive
NKAPD1 (NKAP domain containing 1)	2	0.333	inactive
NKAPD1 (NKAP domain containing 1)	1	0.0767	inactive
TET1 (tet methylcytosine dioxygenase 1)	2	-0.0445	inactive
TET1 (tet methylcytosine dioxygenase 1)	1	-0.14	inactive
ASPHD1 (aspartate beta-hydroxylase domain containing 1)	2	-0.148	inactive
NME9 (NME/NM23 family member 9)	2	-0.522	inactive
ASPHD1 (aspartate beta-hydroxylase domain containing 1)	3	-0.603	inactive
TET1 (tet methylcytosine dioxygenase 1)	3	-0.867	inactive
